These are yes or no findings as the source states them, for the method shown. Binding seen in cells or lysates may run through a third protein. Binding calls can cover weak binding; strength is not graded here. Tags and fused reporters may be left off the sequences shown.
biological target: T1, HIP14L-GFP (Huntingtin Interacting Protein 14-like, GFP tagged) (human (from the printed RefSeq entries)) (UniProt Q8IUH4); assay: co-IP; COS-7 cells transiently co-transfected, harvested after 24 h; lysed in 1% SDS TEEN, diluted in four volumes 1% TritonX-100 TEEN; GFP immunoprecipitated overnight (goat anti-GFP, Dynabeads Protein G); blots probed for HTT and GFP; HTT band as percent of the GFP band, normalized to 15Q HTT 1–548
T1 sequence: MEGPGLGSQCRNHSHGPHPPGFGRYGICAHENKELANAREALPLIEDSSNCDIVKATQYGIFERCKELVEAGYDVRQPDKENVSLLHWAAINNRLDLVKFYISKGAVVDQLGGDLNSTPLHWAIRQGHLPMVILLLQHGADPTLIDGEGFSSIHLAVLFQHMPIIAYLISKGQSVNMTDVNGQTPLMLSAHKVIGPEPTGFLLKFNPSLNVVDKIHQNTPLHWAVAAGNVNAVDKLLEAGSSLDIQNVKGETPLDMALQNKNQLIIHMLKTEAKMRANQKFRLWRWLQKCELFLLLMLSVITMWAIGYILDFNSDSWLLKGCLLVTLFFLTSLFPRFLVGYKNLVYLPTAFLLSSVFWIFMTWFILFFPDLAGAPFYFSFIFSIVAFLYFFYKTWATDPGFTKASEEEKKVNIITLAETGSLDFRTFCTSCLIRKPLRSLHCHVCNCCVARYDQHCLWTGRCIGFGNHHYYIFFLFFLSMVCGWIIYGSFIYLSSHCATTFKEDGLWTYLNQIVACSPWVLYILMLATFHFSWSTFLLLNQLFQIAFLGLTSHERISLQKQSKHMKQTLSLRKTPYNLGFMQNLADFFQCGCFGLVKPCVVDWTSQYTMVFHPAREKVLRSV

Substance | binding
15Q HTT 1–224 (human) (domain or fragment) | no binding
HTT 427–548 (human) (domain or fragment) | no binding
HTT 88–548 (human) (domain or fragment) | binds
128Q HTT 1–224 (human) (domain or fragment) | no binding
15Q HTT 1-548Δ257-315 (human) (domain or fragment) | binds
15Q HTT 1–548 (human) (domain or fragment) | binds
128Q HTT 1–427 (human) (domain or fragment) | binds

Now from value to substance:

binding | Substance
binds | HTT 151–548 (human) (domain or fragment)
binds | 15Q HTT 1–427 (human) (domain or fragment)
binds | HTT 224–548 (human) (domain or fragment)
